Measured values published in paper PMC10163288.
This is one part of the list.

B1: il10ra_site1_sap_22_mot_HHH_b1_08593_000000040_0001_43_57_H_._HHH_b2_06751_0001_0000100019_0000001_0_0001 (protein)
chain: SSSSDEEEEELEELVELLKKLLKEGDRERFAETAQRALRIAFQLSDPEALRELWELVRRAASSSS
B2: il10ra_site1_sap_19_mot_HHH_b1_05860_000000142_0001_1_19_H_._HHH_b1_04670_af2_0001_0000600070_0000001_0_0001 (protein)
chain: SDEEEAERILEKIKELAEEKNDEEVKVAVRFWERLDEDAKKLNNEEAVKSITWAAEALLELVEKS
B3: il10ra_site1_sap_24_mot_HHH_b2_03708_000000000_0001_1_18_H_._HHH_b1_06878_af2_0001_0000700017_0000001_0_0001 (protein)
chain: SSSSSSSNEEALEFLIWALEAATTEQQREAALRFLEAMARWLNDEEAEEVVEEFKERHSSSSSSS
B4: il10ra_site1_normal_mot_3c6ad1a4bc7d4f5cf55cee527202d42a_0001_000000108_0001_32_49_H_._HHH_b2_03602_af2_0001_0000600008_0000001_0_af2pred_dldesign_0_af2pred (protein)
chain: SSSSSDKEYYDALVKYYKEALALGKPEAAEKIALKGAEMRLEGKSLEEFEEKAKEILEEESSSSS
B5: il10ra_site1_sap_20_mot_HHH_b1_03262_af2_000000181_0001_43_57_H_._HHH_b1_08156_0001_0000100008_0000001_0_0001 (protein)
chain: SSSSDEAEEEVEELLEEAKRIEDPRELNEVLLRATQIALENNNPELLRLVWEVFRELVEGSSSSS
B6: il10ra_site1_normal_mot_HHH_b2_00108_000000012_0001_38_56_H_._HHH_b2_04021_0001_0000100005_0000002_0_af2pred_0001 (protein)
chain: SSSSSKEVASRFWRLSLKLLLEAGNEEDLKAALKAAEEAARQFNDEELEEEVEEIERELKSSSSS
B7: il10ra_site1_normal_mot_8756ee2cf497b5429c717dfc0c0bcfd6_0001_000000186_0001_1_13_H_._HHH_b1_02427_af2_0001_0000600028_0000001_0 (protein)
chain: SSSSDLEELFEILRRAAEALHEGNPEEAEKLLEEAREIAERLNNDVFRAQIEYLERQVEELSSSS
B8: il10ra_site1_normal_mot_HHH_b1_05021_af2_000000076_0001_42_56_H_._HHH_b1_01424_0001_0000300015_0000001_0_af2pred_0001 (protein)
chain: SSSSDESAELARRAVKLAVEIEEDPRRKEELEEEIEELLELLEELGNKTAVLSVEYMLELLSSSS
B9: il10ra_site1_sap_20_mot_HEEHE_1605_000000211_0001_40_56_H_._544ef0e38e907b7890d4414ebae48784_0001_1_0001_0000300011_0000001_0_0001 (protein)
chain: SSSSSEEEERLEELEEQLEEAVREGDRELVLELIQEILRLAYQLRDEEVLRELWEILRKLSSSSS
B10: il10ra_site1_sap_14_mot_HHH_b1_05357_000000034_0001_23_39_H_._HHH_b1_02749_0001_0000100001_0000002_0_0001 (protein)
chain: DEVEELIEELRKEGDPYAEELLEQLEHLERRDPWHARQVLMVFELLVRQLGDPREAVKDLVKIMR
B11: il10ra_site1_normal_mot_HHH_b2_01310_000000089_0001_41_55_H_._HHH_b2_00518_0001_0000400010_0000001_1 (protein)
chain: SSSSSEDEERIRELLEEAEEALEEGDREKAVRLLLEATQIAFENNNAEILQEVWEVARRLVSSSS
B12: il10ra_site1_normal_mot_HHH_b1_02397_af2_000000085_0001_39_57_H_._HHH_b2_00311_0001_0000500034_0000001_0 (protein)
chain: SSSSSSDLEELLEELEQLLEEGDHERFAEVALRILRLAFRLSDPEVLQAVWELVQRLASSSSSSS
B13: il10ra_site1_sap_28_mot_HHH_b2_08004_000000101_0001_1_17_H_._HHH_b1_01468_0001_0000100008_0000001_0_0001_af2pred_dldesign_0_af2pred (protein)
chain: SSSSSPEDLATARRLLEYAKFLKEAGDMESVKVAYDAIKTLAELTNNPEIKAILEEIKSLLSSSS
B14: il10ra_site1_normal_mot_HHH_b1_06816_000000239_0001_1_19_H_._HHH_b1_07754_0001_0000400009_0000002_0 (protein)
chain: SSSSSSDREEEAEELLEELKQIPDPDERFKLAREAIQLAVEAGDPELARRISRLAAELSSSSSSS
B15: il10ra_site1_sap_15_mot_HHH_b1_05860_000000142_0001_1_19_H_._HHH_b1_01898_0001_0000200013_0000001_1_0001 (protein)
chain: SSSSSNERELLEAALRIIEQILEIGDPEAARRMLRALKRVAEQANDEEIEREVERLEEELSSSSS
B16: il10ra_site1_normal_mot_HHH_b2_06979_000000158_0001_42_57_H_._HHH_b2_06735_af2_0001_0000400035_0000001_0 (protein)
chain: SSSSDAELSQEAIRIIREAAELFRNGNPEEARELLEELREELEKAGNRLLLINVEYLLRDLSSSS
B17: il10ra_site1_sap_25_mot_HHH_b2_05111_af2_000000002_0001_42_56_H_._HHH_b1_02823_0001_0000300034_0000001_0_0001_af2pred_0001 (protein)
chain: DPRKEELEEEIERVLEEFEKGKIDPEQAEELLAELIYIAARLGDEEALKLALQAFAKIRKALQES
B18: il10ra_site1_sap_15_mot_e1dd4851c59bc1cdde016f988f6856bd_0001_1_000000200_0001_16_31_H_._HEEHE_1920_af2_0001_0000300004_0000001_1_0001 (protein)
chain: SSSSDLYEHVERLIEEVDRLLREGDKEEAEEVLKELEEFAKRHNDWVARAVVELLERLIEGSSSS
B19: il10ra_site1_normal_mot_HHH_b1_05357_000000034_0001_23_39_H_._HHH_b1_07367_af2_0001_0000600023_0000001_0_af2pred_0001 (protein)
chain: SSSSDEEAEEIEEELEELLKRGDLEEAKKLLRRLLELAVHLRDPELAYAAIRIFAIINRLSSSSS
B20: il10ra_site1_sap_14_mot_HHH_b2_04680_000000215_0001_1_16_H_._HHH_b1_04704_0001_0000200020_0000001_0_0001_af2pred_dldesign_0_af2pred (protein)
chain: SAELRARLLAVLTEVLGDPALAQAVLDHLEAQAGGDPRAIAERARALLELLGREEAAARVRELLE
B21: il10ra_site1_normal_mot_HHH_b1_06994_000000193_0001_40_55_H_._HHH_b1_03549_af2_0001_0000100003_0000001_0 (protein)
chain: SSSSDQEEELFEAVQRLLEQAEEHGDERLLRALLIALRKLAELLKDPELEEIVKRLEEELSSSSS
B22: il10ra_site1_normal_mot_HHH_b1_01011_000000096_0001_1_19_H_._HHH_b1_01500_0001_0000100003_0000001_0_1_af2pred_0001 (protein)
chain: SSSSSREEEALRLSLKFVRFLLKQGDPEAAEFILRAAKQLAERSNDEELLEEIRELLKELNSSSS
B23: il10ra_site1_normal_mot_HHH_b1_04592_af2_000000261_0001_39_52_H_._HHH_b1_05275_af2_0001_0000300010_0000001_1_af2pred_0001 (protein)
chain: SSSSNEVKEEVAKLLAEAFLAAMKGNPEEVEELLREAEEVAREHNDPQAENLVRVVKRLLSSSSS
B24: il10ra_site1_sap_13_mot_HHH_b2_03220_af2_000000223_0001_23_40_H_._6d8c65c56f735b695b51d067c36b126f_0001_0001_0000400010_0000001_1_0001 (protein)
chain: SSSSEEERVKELREEIEELEEEGDTERVLEILQEILRLIYQLGDEEKLRELWEILKRLAEERSSS

What follows are binders tested against il10ra, Q13651 (assay: yeast display titration).

Apparent Kd, inactive:
B1 no binding seen
B2 no binding seen
B3 no binding seen
B4 no binding seen
B5 no binding seen
B6 no binding seen
B7 no binding seen
B8 no binding seen
B9 no binding seen
B10 no binding seen
B11 no binding seen
B12 no binding seen
B13 no binding seen
B14 no binding seen
B15 no binding seen
B16 no binding seen
B17 no binding seen
B18 no binding seen
B19 no binding seen
B20 no binding seen
B21 no binding seen
B22 no binding seen
B23 no binding seen
B24 no binding seen

Five successive entries from above, quoted:
Apparent Kd, inactive:
B9 no binding seen
B10 no binding seen
B11 no binding seen
B12 no binding seen
B13 no binding seen
